Hit rate of the full screen: of about 390,000 compounds, about 760 (0.19%) were called active. The inconclusive results got no clear call from the source; some entries with a clear call stand among them for comparison. Calls follow the shape of the dose curve; as a rule, active = well fitted inhibition curve with a large enough effect; inconclusive = small, poorly fitted or top-dose-only effect; inactive = flat fitted curve, though single readings scatter. A potency beside an inconclusive call is a rough fit, not a confirmed value.
Assay: qHTS for Inhibitors of Vif-A3F Interactions: qHTS; also: nearly all actives have a fitted effect of over 65% in size; as to activity, negative = active: % of control where 0% means no effect
Settings: HeLa A3F-eYFP + Vif (tagged APOBEC3F with the HIV-1 protein that degrades it), YFP fluorescence increase; series mostly up to 46.1 µM; activity, negative = active: at the top concentration
Method in brief: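 Fluorescence increase (Ex 488/Em 500-530) after overnight compound treatment at 37 deg C flags inhibition of Vif-driven A3F-eYFP loss in stable HeLa A3F-eYFP/Vif cells seeded overnight beforehand.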
Potency is read from the fitted curve at half-maximal effect.

Row | Structure (SMILES) | Potency | activity, negative = active
1 | O=C(NC(=S)Nc1cc(-c2nc3ccccc3[nH]2)ccc1Cl)c1ccc2c(c1)OCO2 | inconclusive: 6.31 µM [inhibitor, single point] | –
2 | Cc1ccn2c(Nc3ccccc3C)c(-c3ccccn3)nc2c1 | inconclusive: 35.5 µM [inhibitor, single point] | –
3 | O=C(/C=C/c1cccs1)NCc1ccc2c(c1)OCO2 | inconclusive: 10 µM [inhibitor, partial curve] | –
4 | N#Cc1c(-c2ccccc2)cc(-c2ccccc2)nc1SCC(=O)O | inconclusive: 35.5 µM [inhibitor, single point] | –
5 | O=C(Nc1nccs1)C(Br)C(Br)c1ccccc1 (stereo unspecified) | – | inactive: 6.47%
6 | O=C(CSc1ccsc1[N+](=O)[O-])Nc1cccc(F)c1 | inconclusive: 35.5 µM [inhibitor, single point] | –
7 | COc1ccc(CCNCCN2CCOCC2)cc1 | inconclusive: 35.5 µM [inhibitor, single point] | –
8 | Cc1cccc(-n2ncc3c(Nc4ccc(Oc5ccc(Cl)cc5)cc4)ncnc32)c1 | inconclusive: 35.5 µM [inhibitor, single point] | –
9 | Cc1ccc(-c2nc3ccccc3s2)cc1NC(=S)NC(=O)c1cccc2ccccc12 | inconclusive: 28.2 µM [inhibitor, single point] | –
10 | COc1cc(OC)cc(-c2nc(-c3ccccc3OC)no2)c1 | – | inactive: -6.26%
11 | Fc1cccc(Nc2nc3ccccc3n3nnnc23)c1 | inconclusive: 28.2 µM [inhibitor, single point] | –
12 | CCC(=O)N1CCN(c2ccc(NC(=O)c3ccc([N+](=O)[O-])o3)cc2Cl)CC1 | – | inactive: -11.1%
13 | COc1cccc(NC(=O)NC2CCCCC2C)c1 (stereo unspecified) | inconclusive: 3.16 µM [inhibitor, single point] | –
14 | Cc1ccc(C2C=C(c3ccc(Cl)cc3)Nc3nc(NS(=O)(=O)c4ccccc4)nn32)cc1 (stereo unspecified) | inconclusive: 15.8 µM [inhibitor, partial curve, poor fit] | –
15 | O=C1c2[nH]nc(-c3ccccc3O)c2C(c2ccc(Cl)cc2)N1Cc1ccco1 (stereo unspecified) | – | inactive: 5.51%
16 | Cc1cc(C)cc(Oc2nc3c(C)cccn3c(=O)c2/C=C(\C#N)c2nc3ccccc3[nH]2)c1 | inconclusive: 35.5 µM [inhibitor, single point] | –
17 | O=S(=O)(/C(=C\c1ccc(C(F)(F)F)cc1)c1nc2ccccc2[nH]1)c1ccccc1 | – | inactive: 0.703%
18 | Cc1ccc(C(=O)CNc2cc(C)ccc2C)cc1 | – | inactive: -5.96%
19 | Cc1ccc(N=C2NC(=O)/C(=C/c3cn(C)c4ccccc34)S2)cc1C | inconclusive: 17.8 µM [inhibitor, partial curve, poor fit] | –
20 | O=C(CCCCCCC(=O)Nc1ccccc1)NO | inconclusive: 7.08 µM [inhibitor, partial curve, poor fit] | –
21 | CCc1ccc(C(=O)CN2C(=O)NC3(CCCCCC3)C2=O)cc1 | – | inactive: -11.6%
22 | COc1ccc(-c2nc3ccccc3c(=O)n2NC(=S)N(C)C)cc1 | – | inactive: 5.23%
23 | O=C1CCCC(=O)C1=C1SCCCS1 | inconclusive: 35.5 µM [inhibitor, single point] | –

Row | Structure (SMILES) | Potency | activity, negative = active
24 | COc1ccc(NS(=O)(=O)c2cccc3cccnc23)cc1Cl | inconclusive: 6.31 µM [inhibitor, single point] | –
25 | COc1ccc(/C=C2\CCc3ccccc3C2=O)cc1O | – | inactive: 15.6%
26 | Cc1c(N=N/C(C(=O)Nc2ccccc2)=C(/O)c2ccccc2)c(=O)n(-c2ccccc2)n1C | active: 10 µM | –
27 | O=C(Nc1ccc(Br)c2cccnc12)c1cccc2ccccc12 | – | inactive: -4.36%
28 | O=C(CCc1ccccc1)c1nnc(-c2ccccc2)o1 | inconclusive: 5.01 µM [inhibitor, single point] | –
29 | CN(C)c1ccc(C(C(=O)NC2CCCCC2)N(Cc2ccco2)C(=O)c2snc(C(N)=O)c2N)cc1 (stereo unspecified) | – | inactive: -2.41%
30 | CN1CCN(CCCNc2nc3ccccc3c3nc(-c4ccccc4)nn23)CC1 | inconclusive: 35.5 µM [inhibitor, single point] | –
31 | Cc1cc(C)c(NC(=S)NC(=O)c2c(Cl)c(C)nn2C)c([N+](=O)[O-])c1 | inconclusive: 35.5 µM [inhibitor, single point] | –
32 | Cc1cccc(N2CCN(C(=O)CCN3C(=S)NC(C)(C)CC3C)CC2)c1C (stereo unspecified) | inconclusive: 22.4 µM [inhibitor, single point] | –
33 | O=C(Nc1ccc(Cl)cc1)C1CCCN(S(=O)(=O)c2ccc3[nH]c(=O)ccc3c2)C1 (stereo unspecified) | inconclusive: 7.94 µM [inhibitor, partial curve, poor fit] | –
34 | Cc1ccc(NC(=O)c2ccsc2)cc1NS(C)(=O)=O | inconclusive: 6.31 µM [inhibitor, single point] | –
35 | Cc1ccc(NC(=O)c2cc(S(=O)(=O)NCCC3=CCCCC3)ccc2F)cc1F | inconclusive: 35.5 µM [inhibitor, single point] | –
36 | Cc1nn(S(=O)(=O)N2CCOCC2)c(C)c1Br | inconclusive: 35.5 µM [inhibitor, single point] | –
37 | Cn1c(=O)c(NCCO)c2c3c(cccc31)C(=O)c1ccccc1-2 | – | inactive: 4.46%
38 | COc1cccc(/C=N/Nc2cc(C)nc(-c3ccccc3O)n2)c1O | inconclusive: 5.01 µM [inhibitor, single point] | –
39 | Nc1cc(N2CCCCCC2)c2nonc2c1[N+](=O)[O-] | inconclusive: 35.5 µM [inhibitor, single point] | –
40 | COC(=O)C(Cc1ccccc1)NC(=O)C(CC(C)C)NC(=O)OC(C)(C)C (stereo unspecified) | – | inactive: -12.8%
41 | CC(=O)C(Cc1ccccc1)NC(=O)CN1CCc2ccccc2C1 (stereo unspecified) | – | inactive: 6.29%
42 | CCn1c(N)c(C(=O)NCc2ccco2)sc1=S | – | inactive: -3.35%
43 | NC(=S)N/N=C1\CC(c2ccc3c(c2)OCCCO3)Oc2ccc(F)cc21 (stereo unspecified) | inconclusive: 2.51 µM [inhibitor, partial curve, poor fit] | –
44 | COc1ccc(C(=O)/C=C/c2cn(CC(O)CN3CCN(C)CC3)c3ccccc23)cc1OC (stereo unspecified) | inconclusive: 35.5 µM [inhibitor, single point] | –
45 | Cc1cc(C)c(C#N)c(SCC(=O)Nc2nonc2N)n1 | – | inactive: 8.58%
46 | CSCCC(=O)N1CCCC(CNC(=O)c2ccc(-c3ccccc3)cc2)C1 (stereo unspecified) | inconclusive: 3.55 µM [inhibitor, single point] | –

Entries from the list above that contain an NH in an aromatic ring:
Row | Structure (SMILES) | Potency | activity, negative = active
1 | O=C(NC(=S)Nc1cc(-c2nc3ccccc3[nH]2)ccc1Cl)c1ccc2c(c1)OCO2 | inconclusive: 6.31 µM [inhibitor, single point] | –
15 | O=C1c2[nH]nc(-c3ccccc3O)c2C(c2ccc(Cl)cc2)N1Cc1ccco1 (stereo unspecified) | – | inactive: 5.51%
16 | Cc1cc(C)cc(Oc2nc3c(C)cccn3c(=O)c2/C=C(\C#N)c2nc3ccccc3[nH]2)c1 | inconclusive: 35.5 µM [inhibitor, single point] | –
17 | O=S(=O)(/C(=C\c1ccc(C(F)(F)F)cc1)c1nc2ccccc2[nH]1)c1ccccc1 | – | inactive: 0.703%
33 | O=C(Nc1ccc(Cl)cc1)C1CCCN(S(=O)(=O)c2ccc3[nH]c(=O)ccc3c2)C1 (stereo unspecified) | inconclusive: 7.94 µM [inhibitor, partial curve, poor fit] | –

From PubChem BioAssay AID602313 (National Center for Advancing Translational Sciences (NCATS), 2012)
